Source: the supplement of paper PMC10849652
Some of the results follow. Residues, ends and D or L forms follow the SMILES beside them. *: point of attachment. Cbz = O=C(OCc1ccccc1)*

Amino acid sequences for entries named in this document (tags omitted). A change or cut given only in a name is not applied to a line headed by its entry.
UniProt O75153: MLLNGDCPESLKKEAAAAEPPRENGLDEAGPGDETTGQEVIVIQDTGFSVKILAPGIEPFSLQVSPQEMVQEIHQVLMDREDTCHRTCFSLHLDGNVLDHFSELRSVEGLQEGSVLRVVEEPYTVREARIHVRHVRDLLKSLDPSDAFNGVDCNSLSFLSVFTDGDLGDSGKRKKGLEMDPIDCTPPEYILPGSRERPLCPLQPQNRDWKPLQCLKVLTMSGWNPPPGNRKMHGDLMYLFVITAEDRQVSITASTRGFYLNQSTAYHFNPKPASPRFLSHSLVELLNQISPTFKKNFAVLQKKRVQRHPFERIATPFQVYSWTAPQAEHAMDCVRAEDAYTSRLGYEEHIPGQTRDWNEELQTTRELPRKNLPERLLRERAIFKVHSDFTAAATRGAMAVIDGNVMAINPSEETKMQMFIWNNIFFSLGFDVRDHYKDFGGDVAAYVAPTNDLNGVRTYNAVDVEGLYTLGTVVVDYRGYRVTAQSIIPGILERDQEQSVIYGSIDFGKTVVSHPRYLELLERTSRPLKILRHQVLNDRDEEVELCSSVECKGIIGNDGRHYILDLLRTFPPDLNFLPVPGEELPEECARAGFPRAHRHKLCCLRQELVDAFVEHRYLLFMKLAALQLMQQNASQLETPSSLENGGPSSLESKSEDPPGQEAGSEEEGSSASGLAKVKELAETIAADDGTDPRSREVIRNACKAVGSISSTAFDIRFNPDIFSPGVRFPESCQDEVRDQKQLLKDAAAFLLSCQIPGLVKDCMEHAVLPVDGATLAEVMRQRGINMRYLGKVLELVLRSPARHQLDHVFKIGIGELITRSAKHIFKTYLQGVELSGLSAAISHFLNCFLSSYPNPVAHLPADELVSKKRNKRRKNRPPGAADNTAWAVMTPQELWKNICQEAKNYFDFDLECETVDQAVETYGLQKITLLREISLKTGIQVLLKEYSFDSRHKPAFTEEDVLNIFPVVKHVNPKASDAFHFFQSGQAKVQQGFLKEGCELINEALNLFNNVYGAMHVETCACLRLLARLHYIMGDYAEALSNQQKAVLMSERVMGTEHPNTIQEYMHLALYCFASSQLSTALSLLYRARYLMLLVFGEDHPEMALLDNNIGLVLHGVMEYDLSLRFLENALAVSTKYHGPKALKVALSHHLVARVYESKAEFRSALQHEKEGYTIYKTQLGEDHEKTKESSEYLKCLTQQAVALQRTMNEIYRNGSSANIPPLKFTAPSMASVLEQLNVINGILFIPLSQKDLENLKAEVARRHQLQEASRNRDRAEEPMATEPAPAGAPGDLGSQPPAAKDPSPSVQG
UniProt P51790: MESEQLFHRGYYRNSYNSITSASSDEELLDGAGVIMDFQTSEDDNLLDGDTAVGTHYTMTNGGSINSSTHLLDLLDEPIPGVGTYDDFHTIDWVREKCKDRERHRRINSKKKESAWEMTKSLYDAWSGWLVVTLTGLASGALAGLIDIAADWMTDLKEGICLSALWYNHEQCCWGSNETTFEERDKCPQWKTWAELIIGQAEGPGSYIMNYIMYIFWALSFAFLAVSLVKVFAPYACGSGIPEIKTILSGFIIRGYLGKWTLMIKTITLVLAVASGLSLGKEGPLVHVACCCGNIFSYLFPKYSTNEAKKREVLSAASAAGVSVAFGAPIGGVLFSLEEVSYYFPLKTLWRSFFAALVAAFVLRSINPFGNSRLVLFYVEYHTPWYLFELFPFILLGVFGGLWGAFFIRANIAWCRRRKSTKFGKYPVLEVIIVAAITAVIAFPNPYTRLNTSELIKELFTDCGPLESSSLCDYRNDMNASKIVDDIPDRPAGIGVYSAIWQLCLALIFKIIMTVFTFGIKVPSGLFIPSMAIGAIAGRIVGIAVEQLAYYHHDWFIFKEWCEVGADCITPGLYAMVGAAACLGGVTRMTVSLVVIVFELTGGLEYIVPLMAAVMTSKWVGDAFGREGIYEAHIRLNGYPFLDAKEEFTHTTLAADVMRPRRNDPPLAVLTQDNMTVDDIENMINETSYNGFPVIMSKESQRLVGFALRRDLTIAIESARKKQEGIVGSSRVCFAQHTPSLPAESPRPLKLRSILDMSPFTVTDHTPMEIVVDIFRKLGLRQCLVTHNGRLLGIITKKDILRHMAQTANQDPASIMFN
UniProt Q9P2E5: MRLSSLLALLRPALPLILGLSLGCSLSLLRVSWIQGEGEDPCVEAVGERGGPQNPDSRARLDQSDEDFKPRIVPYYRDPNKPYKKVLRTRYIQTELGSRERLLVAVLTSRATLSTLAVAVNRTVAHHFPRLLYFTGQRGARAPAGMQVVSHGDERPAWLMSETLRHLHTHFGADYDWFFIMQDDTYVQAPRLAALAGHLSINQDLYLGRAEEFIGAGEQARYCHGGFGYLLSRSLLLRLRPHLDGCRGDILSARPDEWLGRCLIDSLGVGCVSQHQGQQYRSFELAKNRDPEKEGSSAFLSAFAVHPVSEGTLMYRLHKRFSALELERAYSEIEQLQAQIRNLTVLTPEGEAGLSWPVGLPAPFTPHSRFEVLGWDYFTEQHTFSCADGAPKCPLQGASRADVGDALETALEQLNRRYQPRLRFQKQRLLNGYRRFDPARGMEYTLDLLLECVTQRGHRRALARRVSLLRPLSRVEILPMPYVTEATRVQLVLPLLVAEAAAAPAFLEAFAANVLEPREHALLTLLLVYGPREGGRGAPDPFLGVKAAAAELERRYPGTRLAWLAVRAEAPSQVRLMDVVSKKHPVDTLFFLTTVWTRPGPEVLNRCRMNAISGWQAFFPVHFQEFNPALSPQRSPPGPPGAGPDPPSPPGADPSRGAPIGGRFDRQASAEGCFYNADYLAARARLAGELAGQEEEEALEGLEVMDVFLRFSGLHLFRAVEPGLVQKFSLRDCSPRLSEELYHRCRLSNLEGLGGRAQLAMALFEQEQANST
UniProt P54105: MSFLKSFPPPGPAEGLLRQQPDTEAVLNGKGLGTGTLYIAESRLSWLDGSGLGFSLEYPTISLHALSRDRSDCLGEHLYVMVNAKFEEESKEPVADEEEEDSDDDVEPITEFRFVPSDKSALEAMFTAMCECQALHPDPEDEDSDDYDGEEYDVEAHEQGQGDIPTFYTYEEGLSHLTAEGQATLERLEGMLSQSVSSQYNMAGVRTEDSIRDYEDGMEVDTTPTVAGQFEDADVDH
UniProt Q9Y696: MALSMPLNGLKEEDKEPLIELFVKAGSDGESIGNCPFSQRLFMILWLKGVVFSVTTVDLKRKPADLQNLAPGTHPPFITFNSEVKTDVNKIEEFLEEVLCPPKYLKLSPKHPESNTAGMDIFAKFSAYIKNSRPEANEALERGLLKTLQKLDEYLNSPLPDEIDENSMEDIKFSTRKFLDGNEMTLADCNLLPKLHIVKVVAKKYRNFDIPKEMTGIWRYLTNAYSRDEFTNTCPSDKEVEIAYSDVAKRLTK
UniProt Q96KA5: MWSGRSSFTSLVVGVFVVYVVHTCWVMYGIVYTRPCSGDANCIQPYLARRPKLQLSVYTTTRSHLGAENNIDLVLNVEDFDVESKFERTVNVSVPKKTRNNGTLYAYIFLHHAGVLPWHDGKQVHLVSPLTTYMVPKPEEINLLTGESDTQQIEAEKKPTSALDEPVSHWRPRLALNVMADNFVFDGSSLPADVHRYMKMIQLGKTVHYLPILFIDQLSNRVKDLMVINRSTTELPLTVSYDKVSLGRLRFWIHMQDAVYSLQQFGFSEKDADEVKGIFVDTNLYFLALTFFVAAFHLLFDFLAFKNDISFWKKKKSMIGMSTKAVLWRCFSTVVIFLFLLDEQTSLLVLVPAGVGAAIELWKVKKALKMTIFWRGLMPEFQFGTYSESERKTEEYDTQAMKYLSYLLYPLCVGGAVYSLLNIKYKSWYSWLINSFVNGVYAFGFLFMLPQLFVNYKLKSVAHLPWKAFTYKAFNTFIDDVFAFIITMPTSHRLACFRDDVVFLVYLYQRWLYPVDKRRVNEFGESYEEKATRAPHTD
UniProt Q9HAW4: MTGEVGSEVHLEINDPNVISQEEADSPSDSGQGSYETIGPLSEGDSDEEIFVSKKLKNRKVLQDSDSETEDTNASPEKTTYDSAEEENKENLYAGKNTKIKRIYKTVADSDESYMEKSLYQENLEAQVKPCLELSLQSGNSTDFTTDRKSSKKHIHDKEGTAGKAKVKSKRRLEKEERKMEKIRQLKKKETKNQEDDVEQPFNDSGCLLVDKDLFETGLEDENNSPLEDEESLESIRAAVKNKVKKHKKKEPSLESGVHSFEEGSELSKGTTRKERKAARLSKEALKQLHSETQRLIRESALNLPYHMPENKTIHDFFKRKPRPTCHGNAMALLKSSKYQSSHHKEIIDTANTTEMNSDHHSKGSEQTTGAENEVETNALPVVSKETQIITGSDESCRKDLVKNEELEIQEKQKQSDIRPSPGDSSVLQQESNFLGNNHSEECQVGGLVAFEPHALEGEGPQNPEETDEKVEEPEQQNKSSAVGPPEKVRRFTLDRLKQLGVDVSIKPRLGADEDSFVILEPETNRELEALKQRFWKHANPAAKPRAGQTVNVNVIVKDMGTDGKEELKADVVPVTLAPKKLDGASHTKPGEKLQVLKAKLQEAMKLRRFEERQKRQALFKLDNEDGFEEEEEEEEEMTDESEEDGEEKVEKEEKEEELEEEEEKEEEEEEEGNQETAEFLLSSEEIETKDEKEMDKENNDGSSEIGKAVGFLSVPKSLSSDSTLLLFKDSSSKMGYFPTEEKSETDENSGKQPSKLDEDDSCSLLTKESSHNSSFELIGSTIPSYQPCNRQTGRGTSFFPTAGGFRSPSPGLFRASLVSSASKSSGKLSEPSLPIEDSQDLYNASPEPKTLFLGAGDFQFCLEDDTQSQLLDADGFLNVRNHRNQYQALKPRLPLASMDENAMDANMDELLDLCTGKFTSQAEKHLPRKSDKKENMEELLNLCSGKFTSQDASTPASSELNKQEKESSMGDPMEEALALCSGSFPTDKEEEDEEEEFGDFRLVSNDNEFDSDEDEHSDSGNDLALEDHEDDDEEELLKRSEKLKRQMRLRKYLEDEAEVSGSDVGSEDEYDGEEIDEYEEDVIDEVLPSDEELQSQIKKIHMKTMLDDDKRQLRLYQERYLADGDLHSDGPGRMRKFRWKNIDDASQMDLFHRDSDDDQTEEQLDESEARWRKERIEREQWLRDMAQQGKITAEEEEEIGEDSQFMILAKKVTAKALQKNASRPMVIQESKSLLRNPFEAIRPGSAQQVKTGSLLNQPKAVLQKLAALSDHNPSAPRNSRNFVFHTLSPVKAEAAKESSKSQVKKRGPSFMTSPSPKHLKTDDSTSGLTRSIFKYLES
UniProt P05452, whole entry, looked up: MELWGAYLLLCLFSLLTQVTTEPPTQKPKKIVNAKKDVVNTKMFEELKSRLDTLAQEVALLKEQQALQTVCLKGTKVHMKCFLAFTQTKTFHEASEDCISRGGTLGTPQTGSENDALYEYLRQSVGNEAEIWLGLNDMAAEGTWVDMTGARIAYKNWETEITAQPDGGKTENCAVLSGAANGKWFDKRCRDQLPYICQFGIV
UniProt O15247: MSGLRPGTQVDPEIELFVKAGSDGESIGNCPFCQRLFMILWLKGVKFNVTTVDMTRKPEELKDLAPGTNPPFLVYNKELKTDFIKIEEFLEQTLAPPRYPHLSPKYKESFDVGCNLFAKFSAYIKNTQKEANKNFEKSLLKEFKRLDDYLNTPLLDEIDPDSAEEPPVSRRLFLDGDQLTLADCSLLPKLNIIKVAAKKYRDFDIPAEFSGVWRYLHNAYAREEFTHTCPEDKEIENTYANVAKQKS
UniProt Q86WW8: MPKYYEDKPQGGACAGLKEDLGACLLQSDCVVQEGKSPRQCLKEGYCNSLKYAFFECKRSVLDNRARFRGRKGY
UniProt Q9Y4C5: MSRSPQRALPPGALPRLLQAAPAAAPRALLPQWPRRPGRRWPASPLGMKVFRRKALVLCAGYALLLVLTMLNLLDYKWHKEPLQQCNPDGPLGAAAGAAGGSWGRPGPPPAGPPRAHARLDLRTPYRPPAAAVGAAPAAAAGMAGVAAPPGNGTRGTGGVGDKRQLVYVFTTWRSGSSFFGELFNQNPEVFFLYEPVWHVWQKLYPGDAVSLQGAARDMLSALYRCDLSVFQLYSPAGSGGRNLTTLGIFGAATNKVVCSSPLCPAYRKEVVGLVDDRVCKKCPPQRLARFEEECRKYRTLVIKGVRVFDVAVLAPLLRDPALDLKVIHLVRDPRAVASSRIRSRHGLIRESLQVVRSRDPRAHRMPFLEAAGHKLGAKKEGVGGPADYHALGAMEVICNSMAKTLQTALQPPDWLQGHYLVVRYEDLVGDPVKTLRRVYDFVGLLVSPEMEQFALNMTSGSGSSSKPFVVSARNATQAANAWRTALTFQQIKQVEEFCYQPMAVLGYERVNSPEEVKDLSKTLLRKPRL
UniProt Q96MX0: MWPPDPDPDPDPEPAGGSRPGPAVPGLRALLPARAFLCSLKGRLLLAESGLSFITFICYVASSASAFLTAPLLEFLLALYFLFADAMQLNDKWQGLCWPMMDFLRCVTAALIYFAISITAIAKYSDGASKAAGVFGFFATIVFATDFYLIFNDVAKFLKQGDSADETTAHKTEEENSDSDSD

What was measured:
Assay in all cases: log2 fold change, soluble protein after heating vs DMSO (PISA); higher = thermal stabilisation; K562 cells, 10 uM, 30 min; active = over 0.2 and 3.5 SD of the protein, either way, in both replicates (recomputed)
erlotinib = compound: C#Cc1cccc(Nc2ncnc3cc(OCCOC)c(OCCOC)cc23)c1 [erlotinib]
How it was run: (§1)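 Soluble protein was defined as the supernatant after 21,000xg for 90 min. It came from K562 cells at 2×10^6 cells/mL given 10 μM compound for 30 min, heated in aliquots for 3 min across 48°C-58°C, pooled, and extracted in PBS with 0.5% NP-40 at 4°C, and was quantified by TMTpro 16plex LC-MS/MS with equalised channel sums. Thermal stability against control samples, from duplicates, is reported as log2 fold change.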

[1] = compound: C/C(=N\NC(=O)C1=CC(=CC=C1)S(=O)(=O)N2CCOCC2)/C3=C(C=CC(=C3)Cl)O
How it was run: as §1

[2] = compound: C1=CC(=C(C=C1Cl)C2=NC3=NC=CN=C3C(=N2)NC4=CC=NC=C4)F
How it was run: as §1

[3] = compound: C1=CC(=CC=C1C2=NC3=C(N2)C=C(C=C3)C(=O)N)OC4=CC=C(C=C4)Cl
How it was run: as §1

[4] = compound: C1=CC2=C(C=CC(=C2)/C=C\3/C(=O)NC(=NCC4=CC=CS4)S3)N=C1
How it was run: as §1

[5] = compound: C1=CC2=NC=CN=C2C=C1/C=C/3\C(=O)NC(=O)S3
How it was run: as §1

[6] = compound: C1=CC=C(C=C1)C2=NC(=C(N2)C3=CC=NC=C3)C4=CC(=C(C=C4)Cl)O
How it was run: as §1

[7] = compound: C1=CC=C2C(=C1)C3=NNC4=CC=CC(=C43)C2=O
How it was run: as §1

[8] = compound: C1CCN(C1)C(=O)NC2=CC=CC(=C2)NC3=NC=C(C(=N3)NCCC4=CN=CN4)Br
How it was run: as §1

[9] = compound: C1CN(CCC1(CC2=CC=C(C=C2)Cl)N)C3=NC=NC4=C3C=CN4
How it was run: as §1

IRAK-1-4 Inhibitor I = compound: C1COCCN1CCN2C3=CC=CC=C3N=C2NC(=O)C4=CC(=CC=C4)[N+](=O)[O-] [IRAK-1-4 Inhibitor I]
How it was run: as §1

[10] = compound: CC(=O)c1cnc2ccc(-c3cc(Cl)c(O)c(Cl)c3)nc2c1N[C@H]1CC[C@H](CN(C)C)CC1
How it was run: as §1

ralimetinib = compound: CC(C)(C)Cn1c(N)nc2ccc(-c3[nH]c(C(C)(C)C)nc3-c3ccc(F)cc3)nc21 [ralimetinib]
How it was run: as §1

[11] = compound: CC(C)(O)CC(=O)NCCn1ccc2ncnc(Nc3ccc(Oc4cccc(C(F)(F)F)c4)c(Cl)c3)c21
How it was run: as §1

[12] = compound: CC(C)C1=C2N=C(C=C(N2N=C1)NCC3=CC=CC=C3)NCCCCCCN
How it was run: as §1

[13] = compound: CC(C)C[C@@H](C=O)NC(=O)[C@H](CC(C)C)NC(=O)[C@H](CC(C)C)NC(=O)OCc1ccccc1
How it was run: as §1

pinometostat = compound: CC(C)N(C[C@H]1O[C@@H](n2cnc3c(N)ncnc32)[C@H](O)[C@@H]1O)[C@H]1C[C@@H](CCc2nc3cc(C(C)(C)C)ccc3[nH]2)C1 [pinometostat]
How it was run: as §1

[14] = compound: CC1=C(C2=C(C=C1)C(=O)C3=CC=CC=C3N2CCCN)C
How it was run: as §1

[15] = compound: CC1=C(C(CC(=O)N1)C2=CC=C(C=C2)C(F)(F)F)C(=O)NC3=C(C=C4C(=C3)C=NN4)F
How it was run: as §1

ibrutinib = compound: C=CC(=O)N1CCC[C@@H](n2nc(-c3ccc(Oc4ccccc4)cc3)c3c(N)ncnc32)C1 [ibrutinib]
How it was run: as §1

Measured: log2 fold change

CLUH (UniProt O75153)
inactive: erlotinib 0.08 | [1] 0 | [2] 0.318 | [3] -0.042 | [4] 0.137 | [6] 0.03 | [7] 0.058 | [8] -0.043 | [9] -0.027 | IRAK-1-4 Inhibitor I 0.107 | ralimetinib 0.028 | [11] -0.048 | [12] -0.179 | [13] -0.009 | pinometostat 0.045 | [14] 0.095
active: [5] 0.324 | [10] 0.467

CLCN3 (UniProt P51790)
inactive: erlotinib -0.024 | [1] 0.079 | [2] -0.053 | [3] -0.045 | [4] 0.023 | [5] 0.07 | [6] -0.01 | [7] -0.03 | [8] -0.032 | [9] 0.055 | IRAK-1-4 Inhibitor I 0.014 | [10] -0.062 | ralimetinib -0.076 | [11] 0.015 | [12] -0.05 | [13] -0.039 | pinometostat -0.031 | [14] -0.053

CLTC (UniProt Q00610)
inactive: erlotinib 0.027 | [1] -0.08 | [2] 0.004 | [3] -0.122 | [4] 0.088 | [5] 0.004 | [6] 0.121 | [7] 0.084 | [8] 0.041 | [9] -0.099 | IRAK-1-4 Inhibitor I 0.026 | [10] 0.135 | ralimetinib 0.196 | [11] 0 | [12] -0.188 | [13] 0.036 | pinometostat 0.032 | [15] -0.103 | [14] 0.024

CLCN3 isoform 2 (UniProt P51790)
inactive: erlotinib 0.008 | [1] 0.089 | [2] 0.059 | [3] 0.044 | [4] 0.024 | [5] -0.002 | [6] 0.025 | [7] -0.017 | [8] -0.012 | [9] 0.033 | IRAK-1-4 Inhibitor I 0.005 | [10] -0.008 | ralimetinib 0.026 | [11] -0.043 | [12] -0.049 | [13] -0.066 | pinometostat -0.043 | [14] 0.051

CHPF2 (UniProt Q9P2E5)
inactive: erlotinib 0.219 | [1] -0.015 | [2] -0.036 | [3] -0.039 | [4] -0.058 | [5] 0.009 | [6] 0.024 | [7] 0.069 | [8] -0.136 | [9] -0.057 | ibrutinib 0.013 | [10] 0.037 | ralimetinib 0.134 | [11] 0.058 | [12] -0.034 | [13] -0.015 | [15] 0.09 | [14] 0.033

CLNS1A (UniProt P54105)
inactive: erlotinib 0.001 | [1] 0.035 | [2] 0.049 | [3] 0.019 | [4] -0.006 | [5] -0.023 | [6] -0.032 | [7] -0.009 | [8] 0.003 | [9] -0.013 | IRAK-1-4 Inhibitor I -0.002 | [10] 0.021 | ralimetinib -0.017 | [11] -0.04 | [12] 0.037 | [13] -0.002 | pinometostat -0.058 | [15] -0.019 | [14] -0.089

CLIC4 (UniProt Q9Y696)
inactive: erlotinib 0.021 | [1] 0.036 | [2] 0.049 | [3] -0.016 | [4] 0.03 | [5] 0.003 | [6] -0.009 | [7] 0 | [8] -0.007 | [9] -0.006 | IRAK-1-4 Inhibitor I 0.03 | [10] 0 | ralimetinib -0.075 | [11] 0 | [12] 0.027 | [13] 0.02 | pinometostat -0.038 | [15] -0.009 | [14] 0.026

CLIP1 isoform 1 (UniProt P30622)
inactive: erlotinib 0.008 | [1] 0.021 | [2] 0.003 | [3] 0.01 | [4] 0 | [5] 0.024 | [6] -0.028 | [7] -0.029 | [8] -0.014 | [9] 0.033 | IRAK-1-4 Inhibitor I 0.01 | [10] -0.007 | ralimetinib -0.052 | [11] 0.005 | [12] 0.07 | [13] 0.006 | pinometostat -0.03 | [15] 0.009 | [14] -0.002

CLPTM1L (UniProt Q96KA5)
inactive: erlotinib 0.011 | [1] 0.04 | [2] -0.029 | [3] 0.063 | [4] 0.032 | [5] 0.018 | [6] -0.002 | [7] -0.037 | [8] -0.022 | [9] 0.017 | IRAK-1-4 Inhibitor I 0.051 | [10] -0.033 | ralimetinib -0.05 | [11] -0.069 | [13] 0.006 | pinometostat 0.023 | [14] 0.033
active: [12] -0.281

CLASP1 (UniProt Q7Z460)
inactive: erlotinib 0.046 | [1] 0.164 | [2] -0.033 | [3] -0.054 | [4] 0.075 | [5] -0.056 | [6] 0.03 | [7] 0.014 | [8] -0.048 | [9] -0.031 | IRAK-1-4 Inhibitor I -0.101 | [10] -0.284 | ralimetinib 0.083 | [11] -0.086 | [12] -0.193 | [13] 0.075 | pinometostat 0.106 | [15] 0.056 | [14] 0.05

CLSPN (UniProt Q9HAW4)
inactive: erlotinib -0.09 | [1] -0.022 | [2] -0.024 | [3] 0.02 | [4] -0.035 | [5] 0.032 | [6] -0.062 | [7] -0.027 | [8] -0.083 | [9] 0.033 | IRAK-1-4 Inhibitor I 0.028 | [10] -0.04 | ralimetinib -0.033 | [11] 0.038 | [12] -0.062 | [13] 0.124 | pinometostat -0.018
active: [14] -0.541

CLEC3B (UniProt P05452)
inactive: erlotinib -0.38 | [1] -0.07 | [2] 0.028 | [3] 0.255 | [4] 0.061 | [5] 0.129 | [6] 0 | [7] -0.2 | [8] 0.154 | [9] 0.268 | [10] 0.118 | ralimetinib -0.007 | [11] 0.279 | [12] 0.124 | [13] 0.007 | [15] 0.171 | [14] -0.286

CLEC16A (UniProt Q2KHT3)
inactive: erlotinib -0.023 | [1] 0.018 | [2] 0.048 | [3] 0.003 | [4] -0.029 | [5] -0.001 | [6] -0.004 | [7] -0.015 | [8] 0.038 | [9] 0.015 | IRAK-1-4 Inhibitor I 0.029 | [10] 0.012 | ralimetinib -0.069 | [11] -0.016 | [12] 0.057 | [13] 0.023 | pinometostat 0.016 | [15] 0.065 | [14] -0.021

CLIC2 (UniProt O15247)
inactive: erlotinib 0.053 | [1] 0.062 | [2] 0.058 | [3] 0.003 | [4] 0.005 | [5] 0.012 | [6] 0.013 | [7] 0.007 | [8] -0.046 | [9] -0.059 | IRAK-1-4 Inhibitor I -0.074 | [10] -0.051 | ralimetinib -0.015 | [11] -0.112 | [12] -0.114 | [13] 0.01 | pinometostat 0.022 | [15] 0 | [14] 0.01

CLUH, A0A494C0R8
inactive: erlotinib -0.008 | [1] -0.081 | [2] 0.253 | [3] -0.107 | [4] 0.127 | [5] 0.235 | [6] -0.081 | [7] 0.03 | [8] 0.07 | [9] 0.05 | IRAK-1-4 Inhibitor I -0.016 | ralimetinib -0.125 | [11] -0.231 | [12] -0.257 | [13] 0.199 | pinometostat -0.044 | [14] 0.046
active: [10] 0.508

COA5 (UniProt Q86WW8)
inactive: erlotinib 0.136 | [1] -0.008 | [2] -0.021 | [3] -0.026 | [4] 0.073 | [7] -0.092 | IRAK-1-4 Inhibitor I -0.136 | [10] -0.077 | [11] -0.047 | [12] -0.088 | pinometostat 0.037

CHST2 (UniProt Q9Y4C5)
inactive: erlotinib -0.008 | [1] -0.05 | [2] -0.052 | [3] -0.098 | [4] 0.095 | [5] 0.093 | [7] 0.136 | [8] -0.124 | [9] 0.125 | IRAK-1-4 Inhibitor I -0.087 | ibrutinib -0.092 | [10] 0.06 | [11] 0.037 | [12] 0.082 | pinometostat 0.091 | [15] -0.006 | [14] 0.157

CMTM3 (UniProt Q96MX0)
inactive: erlotinib 0.032 | [1] -0.055 | [2] 0.166 | [3] -0.044 | [4] 0.034 | [5] 0.066 | [7] -0.007 | [8] 0.002 | [9] 0.051 | IRAK-1-4 Inhibitor I 0.021 | ibrutinib 0.014 | [10] 0.003 | [11] -0.108 | [12] 0.068 | pinometostat 0 | [14] -0.062

Pulled one by one from the entries so far (two):
CMTM3 (UniProt Q96MX0)
inactive: erlotinib 0.032 | [1] -0.055 | [2] 0.166 | [3] -0.044 | [4] 0.034 | [5] 0.066 | [7] -0.007 | [8] 0.002 | [9] 0.051 | IRAK-1-4 Inhibitor I 0.021 | ibrutinib 0.014 | [10] 0.003 | [11] -0.108 | [12] 0.068 | pinometostat 0 | [14] -0.062

CLUH, A0A494C0R8
inactive: erlotinib -0.008 | [1] -0.081 | [2] 0.253 | [3] -0.107 | [4] 0.127 | [5] 0.235 | [6] -0.081 | [7] 0.03 | [8] 0.07 | [9] 0.05 | IRAK-1-4 Inhibitor I -0.016 | ralimetinib -0.125 | [11] -0.231 | [12] -0.257 | [13] 0.199 | pinometostat -0.044 | [14] 0.046
active: [10] 0.508
